Some of these results come from one statement about several compounds together. At least one structure is not confirmed: it was looked up by name or label, or the drawing left a doubt. Some ranges recur; such a range may be that of the whole group of compounds.
Test system: soybean rust (Phakopsora pachyrhizi)
Assay: Fungicidal efficacy test for soybean rust
Type: in vivo
Details: treatment concentration 50 ppm, foliage spray on soybean (Enrei, 2-leaf stage) before inoculation, assessed about 10 days later

Row | SMILES | control value (assessment criteria grade)
1 | Cc1nnn(Cc2ccc(C3=NOC(C(F)(F)F)N3)s2)n1 (racemic) [3-67] | 8 (Control value 80-89%)
2 | Cc1nnnn1Cc1ccc(C2=NOC(C(F)(F)F)N2)s1 (racemic) [3-68] | 8 (Control value 80-89%)
3 | COC(NC(C)=O)c1ccc(C2=NOC(C(F)(F)F)N2)s1 (stereo not drawn) [1-11] | 8 (Control value 80-89%)
4 | CNCc1ccc(C2=NOC(C(F)(F)F)N2)s1 (stereo not drawn) [1-25] | 8 (Control value 80-89%)
5 | CCOC(NC=O)c1ccc(C2=NOC(C(F)(F)F)N2)s1 (stereo not drawn) [1-40] | 8 (Control value 80-89%)
6 | CC(C)OC(NC=O)c1ccc(C2=NOC(C(F)(F)F)N2)s1 (stereo not drawn) [1-41] | 8 (Control value 80-89%)
7 | CCOC(NC(C)=O)c1ccc(C2=NOC(C(F)(F)F)N2)s1 (stereo not drawn) [1-42] | 8 (Control value 80-89%)
8 | CC(=O)NC(OC(C)C)c1ccc(C2=NOC(C(F)(F)F)N2)s1 (stereo not drawn) [1-43] | 8 (Control value 80-89%)
9 | O=C(NC1CC1)c1ccc(C2=NOC(C(F)(F)F)N2)s1 (stereo not drawn) [2-5, N-cyclopropyl-5-[5-(trifluoromethyl)-4,5-dihydro-1,2,4-oxadiazol-3-yl]thiophene-2-carboxamide] | 8 (Control value 80-89%)
